Results on six molecules are retold here after paper doi:10.1101/2021.12.08.471875.

Amino acid sequences for entries named in this document (tags omitted).
UniProt P28632: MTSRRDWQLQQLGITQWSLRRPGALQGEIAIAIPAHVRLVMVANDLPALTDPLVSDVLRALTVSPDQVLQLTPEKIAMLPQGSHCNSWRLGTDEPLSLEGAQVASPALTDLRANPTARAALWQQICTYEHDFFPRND
UniProt P0A988: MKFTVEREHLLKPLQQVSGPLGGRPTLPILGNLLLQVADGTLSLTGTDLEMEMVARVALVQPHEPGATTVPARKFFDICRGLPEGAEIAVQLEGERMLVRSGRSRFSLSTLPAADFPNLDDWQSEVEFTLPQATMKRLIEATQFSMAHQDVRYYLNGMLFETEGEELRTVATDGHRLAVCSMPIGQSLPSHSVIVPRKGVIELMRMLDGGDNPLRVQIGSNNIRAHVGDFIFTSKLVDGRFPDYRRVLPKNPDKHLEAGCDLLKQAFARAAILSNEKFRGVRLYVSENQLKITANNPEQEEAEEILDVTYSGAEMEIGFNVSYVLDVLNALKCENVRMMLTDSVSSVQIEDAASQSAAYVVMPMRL
UniProt P0AGE0: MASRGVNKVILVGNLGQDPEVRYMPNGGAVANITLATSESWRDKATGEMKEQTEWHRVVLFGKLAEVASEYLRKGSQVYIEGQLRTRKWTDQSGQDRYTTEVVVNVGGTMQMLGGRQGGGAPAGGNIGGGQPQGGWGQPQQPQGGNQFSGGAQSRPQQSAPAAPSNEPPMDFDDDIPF

Common to all, as to experiment: affinity purification with mass spectrometry
Assay [1] has as its target T1, NrdB, a ribonuclotide reductase (RNR) subunit (E. coli) (UniProt P69924).
T1 sequence: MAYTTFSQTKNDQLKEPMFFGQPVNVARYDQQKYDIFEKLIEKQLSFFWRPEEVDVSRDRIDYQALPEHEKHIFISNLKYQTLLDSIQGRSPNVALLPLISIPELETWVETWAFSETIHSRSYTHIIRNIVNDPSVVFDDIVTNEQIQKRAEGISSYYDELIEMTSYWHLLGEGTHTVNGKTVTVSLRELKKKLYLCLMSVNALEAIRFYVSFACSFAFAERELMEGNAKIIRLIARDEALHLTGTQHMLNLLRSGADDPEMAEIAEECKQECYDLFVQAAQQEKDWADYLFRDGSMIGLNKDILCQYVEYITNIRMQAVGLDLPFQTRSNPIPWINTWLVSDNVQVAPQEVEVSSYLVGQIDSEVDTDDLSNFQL

The target in a further assay is HolD (E. coli) (UniProt P28632).
The target in the next assay is T2, DiaA (E. coli) (UniProt P66817).
T2 sequence: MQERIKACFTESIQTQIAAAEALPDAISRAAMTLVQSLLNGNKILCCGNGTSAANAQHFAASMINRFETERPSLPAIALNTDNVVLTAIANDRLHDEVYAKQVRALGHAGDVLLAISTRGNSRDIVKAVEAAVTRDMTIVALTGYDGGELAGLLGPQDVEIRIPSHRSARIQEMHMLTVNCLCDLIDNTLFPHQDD

The next assay concerns the target T3, SeqA (E. coli) (UniProt P0AFY8).
T3 sequence: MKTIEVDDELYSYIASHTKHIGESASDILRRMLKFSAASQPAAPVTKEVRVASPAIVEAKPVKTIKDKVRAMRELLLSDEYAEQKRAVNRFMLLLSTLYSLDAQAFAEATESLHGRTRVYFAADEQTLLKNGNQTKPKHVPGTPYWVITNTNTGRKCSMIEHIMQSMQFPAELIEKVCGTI

The target in another assay is T4, DnaA (E. coli) (UniProt P03004).
T4 sequence: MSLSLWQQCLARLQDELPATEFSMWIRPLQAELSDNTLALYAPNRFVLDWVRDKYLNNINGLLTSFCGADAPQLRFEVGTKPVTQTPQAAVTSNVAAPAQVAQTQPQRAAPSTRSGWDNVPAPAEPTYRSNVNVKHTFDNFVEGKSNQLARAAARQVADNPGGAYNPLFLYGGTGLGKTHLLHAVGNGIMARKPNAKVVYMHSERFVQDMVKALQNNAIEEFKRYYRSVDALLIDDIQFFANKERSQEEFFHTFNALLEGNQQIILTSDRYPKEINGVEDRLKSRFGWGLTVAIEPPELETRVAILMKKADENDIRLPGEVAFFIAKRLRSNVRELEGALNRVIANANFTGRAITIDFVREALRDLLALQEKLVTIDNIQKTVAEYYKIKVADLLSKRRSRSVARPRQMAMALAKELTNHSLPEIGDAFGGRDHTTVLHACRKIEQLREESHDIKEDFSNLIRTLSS

Results are given in words; binding and its absence hold for the method and conditions named. Binding seen in cells or lysates may run through a third protein. These calls come from enrichment with a bait or labelling near it, and not all partners need be listed. For part of these data: No binding means not detected with the bait.

As to “β sliding clamp of DNA polymerase III (from UniProt P0A988 1-366)”, the binding result in assay [1] is “binds”. As for Ssb (from UniProt P0AGE0 1-178), the binding result (in the assay with HolD (E. coli); in assay [1]) was “binds” in each case.

B1: GalU (enzyme, UniProt P0AEP3 1-302)
chain: MAAINTKVKKAVIPVAGLGTRMLPATKAIPKEMLPLVDKPLIQYVVNECIAAGITEIVLVTHSSKNSIENHFDTSFELEAMLEKRVKRQLLDEVQSICPPHVTIMQVRQGLAKGLGHAVLCAHPVVGDEPVAVILPDVILDEYESDLSQDNLAEMIRRFDETGHSQIMVEPVADVTAYGVVDCKGVELAPGESVPMVGVVEKPKADVAPSNLAIVGRYVLSADIWPLLAKTPPGAGDEIQLTDAIDMLIEKETVEAYHMKGKSHDCGNKLGYMQAFVEYGIRHNTLGTEFKAWLEEEMGIKK
With B1, the binding entry with DiaA (E. coli) and with SeqA (E. coli) was “binds” throughout.

B2: MrcB (enzyme, UniProt P02919 1-844)
chain: MAGNDREPIGRKGKPTRPVKQKVSRRRYEDDDDYDDYDDYEDEEPMPRKGKGKGKGRKPRGKRGWLWLLLKLAIVFAVLIAIYGVYLDQKIRSRIDGKVWQLPAAVYGRMVNLEPDMTISKNEMVKLLEATQYRQVSKMTRPGEFTVQANSIEMIRRPFDFPDSKEGQVRARLTFDGDHLATIVNMENNRQFGFFRLDPRLITMISSPNGEQRLFVPRSGFPDLLVDTLLATEDRHFYEHDGISLYSIGRAVLANLTAGRTVQGASTLTQQLVKNLFLSSERSYWRKANEAYMALIMDARYSKDRILELYMNEVYLGQSGDNEIRGFPLASLYYFGRPVEELSLDQQALLVGMVKGASIYNPWRNPKLALERRNLVLRLLQQQQIIDQELYDMLSARPLGVQPRGGVISPQPAFMQLVRQELQAKLGDKVKDLSGVKIFTTFDSVAQDAAEKAAVEGIPALKKQRKLSDLETAIVVVDRFSGEVRAMVGGSEPQFAGYNRAMQARRSIGSLAKPATYLTALSQPKIYRLNTWIADAPIALRQPNGQVWSPQNDDRRYSESGRVMLVDALTRSMNVPTVNLGMALGLPAVTETWIKLGVPKDQLHPVPAMLLGALNLTPIEVAQAFQTIASGGNRAPLSALRSVIAEDGKVLYQSFPQAERAVPAQAAYLTLWTMQQVVQRGTGRQLGAKYPNLHLAGKTGTTNNNVDTWFAGIDGSTVTITWVGRDNNQPTKLYGASGAMSIYQRYLANQTPTPLNLVPPEDIADMGVDYDGNFVCSGGMRILPVWTSDPQSLCQQSEMQQQPSGNPFDQSSQPQQQPQQQPAQQEQKDSDGVAGWIKDMFGSN
On to B2, for which the binding result with DnaA (E. coli) is on record as “binds”.

B3: PfkB (enzyme, UniProt P06999 1-309)
chain: MVRIYTLTLAPSLDSATITPQIYPEGKLRCTAPVFEPGGGGINVARAIAHLGGSATAIFPAGGATGEHLVSLLADENVPVATVEAKDWTRQNLHVHVEASGEQYRFVMPGAALNEDEFRQLEEQVLEIESGAILVISGSLPPGVKLEKLTQLISAAQKQGIRCIVDSSGEALSAALAIGNIELVKPNQKELSALVNRELTQPDDVRKAAQEIVNSGKAKRVVVSLGPQGALGVDSENCIQVVPPPVKSQSTVGAGDSMVGAMTLKLAENASLEEMVRFGVAAGSAATLNQGTRLCSHDDTQKIYAYLSR
On to B3, for which the binding result with DnaA (E. coli) is on record as “binds”.

B4: DnaA (protein, UniProt P03004 1-467)
chain: T4 sequence
Regarding B4, the binding result is “binds” with DiaA (E. coli) and “no binding” in the assay with SeqA (E. coli).
